Measured values taken from paper doi:10.1101/2023.05.04.539414.
No constants are given. Whether binding was seen depends on the method and setting. Binding calls can cover weak binding; strength is not graded here.

Biological target: C-terminal LRR domain of TOL-1, purified (Caenorhabditis elegans)
Assay: SEC

binding: binds
B1: LAT-1 Lec domain (residues T32-P136), purified (domain or fragment, UniProt G5EDW2 32-136)
chain: TTDESGTISHTICDGEAAELSCPAGKVISIVLGNYGRFSVAVCLPDNDIVPSNINCQNHKTKSILEKKCNGDSMCYFTVDKKTFTEDPCPNTPKYLEVKYNCVVP
